Our source for the binding values is paper PMC3157439.

This experiment deals with T1, cytoplasmic domain of mouse GPR50 (amino acids 304-592) (mouse) (UniProt O88495).
T1 sequence: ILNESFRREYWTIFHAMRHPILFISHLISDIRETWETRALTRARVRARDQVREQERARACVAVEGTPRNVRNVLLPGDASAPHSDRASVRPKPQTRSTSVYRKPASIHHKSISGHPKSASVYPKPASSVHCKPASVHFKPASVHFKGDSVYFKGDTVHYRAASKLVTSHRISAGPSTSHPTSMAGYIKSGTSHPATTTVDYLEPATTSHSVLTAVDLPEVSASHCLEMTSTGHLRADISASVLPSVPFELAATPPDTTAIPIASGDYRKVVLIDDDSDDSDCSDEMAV
As to the kind of experiment: two-hybrid; library screen in yeast AH109 (Gal4 system); bait pGBKT7-cGPR50, mouse testis cDNA library in pACT2; growth on Trp-Leu-His-Ade- plates and beta-galactosidase (X-gal) colour.

These are yes or no findings as the source states them, for the method shown. Binding can be weak; no strength is given.

For the substance Syndecan binding protein 8 (mouse), the binding result is listed as “binds”.

As for TBC1domain member 19 (mouse), the binding result is given as “binds”.
